No constants are given. Whether binding was seen depends on the method and setting. In cells and extracts the contact can be indirect. Some binding calls cover weakened binding; strength is not graded here.
Legend:
[1] = molecular target: androgen receptor (human (endogenous in ZR-75-1, T-47D, MDA-MB-453, MFM-223 cells and human breast tissue)) (UniProt P10275); assay: co-IP; AR antibody on protein A magnetic beads, blot for GATA3; hormone-starved cells treated with vehicle or DHT for 4 h, cross-linked with 1% formaldehyde, lysed and sonicated; four breast cancer cell lines
[2] = molecular target: androgen receptor (human (endogenous in ZR-75-1, T-47D, MDA-MB-453, MFM-223 cells and human breast tissue)) (UniProt P10275); assay: proximity ligation; PLA with AR and GATA3 antibodies on 4 uM sections of clinical breast tissues (ER+/AR+ and ER-/AR+ primary cancers, non-malignant reduction mammoplasties), citrate antigen retrieval pH 6.5
[3] = molecular target: androgen receptor (human (endogenous in ZR-75-1, T-47D, MDA-MB-453, MFM-223 cells and human breast tissue)) (UniProt P10275); assay: proximity ligation; PLA with AR and GATA3 antibodies on fixed, permeabilised ZR-75-1, T-47D, MFM-223 and MDA-MB-453 cells; hormone-starved, then vehicle or 10 nM DHT for 4 h (also a time course, and enobosarm 10 or 100 nM in T-47D)
GATA3 (human) = GATA3 (human) (UniProt P23771); assay: co-IP; reciprocal: GATA3 antibody on protein A magnetic beads, blot for AR; hormone-starved cells treated with vehicle or DHT for 4 h, cross-linked with 1% formaldehyde, lysed and sonicated; four breast cancer cell lines

The chains behind the UniProt entries cited, without tags or fusion partners.
UniProt P10275: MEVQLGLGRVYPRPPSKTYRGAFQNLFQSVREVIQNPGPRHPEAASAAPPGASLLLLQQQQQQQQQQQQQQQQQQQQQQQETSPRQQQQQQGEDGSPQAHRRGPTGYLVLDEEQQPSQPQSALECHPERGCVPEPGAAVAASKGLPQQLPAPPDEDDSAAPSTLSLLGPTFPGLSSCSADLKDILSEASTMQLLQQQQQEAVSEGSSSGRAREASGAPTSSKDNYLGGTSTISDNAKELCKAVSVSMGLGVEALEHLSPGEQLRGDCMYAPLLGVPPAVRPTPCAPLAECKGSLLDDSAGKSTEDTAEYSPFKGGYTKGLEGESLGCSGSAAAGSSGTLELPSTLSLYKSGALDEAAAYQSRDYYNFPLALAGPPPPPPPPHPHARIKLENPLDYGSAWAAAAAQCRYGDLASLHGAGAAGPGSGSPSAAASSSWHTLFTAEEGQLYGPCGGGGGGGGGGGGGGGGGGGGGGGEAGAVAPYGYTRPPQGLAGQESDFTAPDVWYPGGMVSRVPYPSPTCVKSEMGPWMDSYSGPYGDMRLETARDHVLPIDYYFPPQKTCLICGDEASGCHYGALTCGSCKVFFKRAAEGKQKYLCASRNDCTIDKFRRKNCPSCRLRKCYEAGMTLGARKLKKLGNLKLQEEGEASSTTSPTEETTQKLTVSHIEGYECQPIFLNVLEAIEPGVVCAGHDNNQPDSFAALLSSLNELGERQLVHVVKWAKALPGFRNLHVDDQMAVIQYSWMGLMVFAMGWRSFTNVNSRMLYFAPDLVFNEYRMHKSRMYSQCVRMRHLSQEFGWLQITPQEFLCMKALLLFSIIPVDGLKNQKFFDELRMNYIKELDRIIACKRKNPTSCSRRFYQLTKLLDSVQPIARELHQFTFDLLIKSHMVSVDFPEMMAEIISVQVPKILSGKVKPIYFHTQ
UniProt P23771: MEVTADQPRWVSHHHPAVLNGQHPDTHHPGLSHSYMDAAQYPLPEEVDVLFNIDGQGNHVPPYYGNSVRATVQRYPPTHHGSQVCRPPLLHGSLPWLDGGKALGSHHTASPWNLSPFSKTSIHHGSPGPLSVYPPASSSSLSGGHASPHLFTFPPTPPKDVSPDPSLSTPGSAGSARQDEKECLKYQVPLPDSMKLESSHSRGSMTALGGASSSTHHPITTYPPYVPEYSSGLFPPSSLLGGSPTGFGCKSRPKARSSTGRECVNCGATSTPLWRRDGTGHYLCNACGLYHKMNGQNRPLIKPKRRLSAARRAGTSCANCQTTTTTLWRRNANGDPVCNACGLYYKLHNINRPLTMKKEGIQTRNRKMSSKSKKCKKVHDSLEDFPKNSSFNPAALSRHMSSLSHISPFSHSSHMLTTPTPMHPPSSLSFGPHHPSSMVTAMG

| Substance | binding [1] | binding [2] | binding [3] | binding (GATA3 (human)) |
| --- | --- | --- | --- | --- |
| GATA3 (from UniProt P23771 1-443) | binds | binds | binds |  |
| androgen receptor (from UniProt P10275 1-920) |  |  |  | binds |

From paper PMC10840202
